Earlier results as cited in US20080221135A1, “COMBINATION THERAPY” (Bristol-Myers Squibb Company, priority 2005, published 2008).
Some entries share one result that the patent states for a list of compounds.

Details: in rats; commercially available taxanes; cited from earlier work

In the case of `CC(=O)O[C@@]12CO[C@@H]1C[C@H](O)[C@@]1(C)C(=O)[C@H](O)C3=C(C)[C@@H](OC(=O)[C@H](O)[C@@H](NC(=O)OC(C)(C)C)c4ccccc4)C[C@@](O)([C@@H](OC(=O)c4ccccc4)[C@H]21)C3(C)C` [docetaxel], the oral bioavailability is listed as under 1%.
For `CC(=O)O[C@H]1C(=O)[C@@]2(C)[C@H]([C@H](OC(=O)c3ccccc3)[C@]3(O)C[C@H](OC(=O)[C@H](O)[C@@H](NC(=O)c4ccccc4)c4ccccc4)C(C)=C1C3(C)C)[C@]1(OC(C)=O)CO[C@@H]1C[C@@H]2O` [paclitaxel], the oral bioavailability is given as under 1%.
